Measured values: patent publication US20150087619A1, “METHOD OF MITIGATING VIRUS ASSOCIATED END-ORGAN DAMAGE” (CHIMERIX, INC., priority 2012, published 2015)
The name of at least one read-out is uncertain.

Assay: Phase 1 comparative bioavailability (solution vs tablet) and food effect study;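 also: plasma levels quantified by validated LC-MS/MS, LLOQ 0.1 ng/mL for HDP-CDV and 0.5 ng/mL for CDV, crossover design with 14-day washout between single doses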
Conditions: 40 mg tablet, single oral dose, healthy volunteers, mean

Compound: CCCCCCCCCCCCCCCCOCCCOP(=O)(O)COC(CO)Cn1ccc(N)nc1=O (centres unmarked) [HDP-CDV]
- Plasma HDP-CDV Vz/F (fasted): 885 L
- Plasma HDP-CDV Vz/F (fed (high fat breakfast)): 1080 L
